# Measured values from article PMC5996148.
# Protein sequences, listed by entry. Tags and fused reporters are not part of them. Lines headed by an entry give the natural chain unless they say otherwise; changes in a name come on top.
# UniProt Q96JL9: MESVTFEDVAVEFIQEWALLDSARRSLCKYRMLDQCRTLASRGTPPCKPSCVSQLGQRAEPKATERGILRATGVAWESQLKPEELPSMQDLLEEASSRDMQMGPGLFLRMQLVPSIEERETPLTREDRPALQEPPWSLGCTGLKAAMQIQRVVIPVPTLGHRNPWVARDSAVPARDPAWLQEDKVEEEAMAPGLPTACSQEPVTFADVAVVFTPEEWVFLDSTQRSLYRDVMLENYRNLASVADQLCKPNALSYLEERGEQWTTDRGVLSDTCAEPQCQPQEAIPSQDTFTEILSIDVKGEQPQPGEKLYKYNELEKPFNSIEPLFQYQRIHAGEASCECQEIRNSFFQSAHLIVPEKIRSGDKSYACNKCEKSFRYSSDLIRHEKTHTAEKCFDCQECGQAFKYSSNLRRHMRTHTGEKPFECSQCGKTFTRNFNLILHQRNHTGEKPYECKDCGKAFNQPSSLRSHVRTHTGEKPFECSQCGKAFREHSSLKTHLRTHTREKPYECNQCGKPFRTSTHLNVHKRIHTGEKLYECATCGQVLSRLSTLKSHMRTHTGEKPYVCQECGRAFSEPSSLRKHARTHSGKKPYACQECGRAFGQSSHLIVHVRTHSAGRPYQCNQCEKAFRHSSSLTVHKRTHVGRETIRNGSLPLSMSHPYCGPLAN
# UniProt Q8TF39: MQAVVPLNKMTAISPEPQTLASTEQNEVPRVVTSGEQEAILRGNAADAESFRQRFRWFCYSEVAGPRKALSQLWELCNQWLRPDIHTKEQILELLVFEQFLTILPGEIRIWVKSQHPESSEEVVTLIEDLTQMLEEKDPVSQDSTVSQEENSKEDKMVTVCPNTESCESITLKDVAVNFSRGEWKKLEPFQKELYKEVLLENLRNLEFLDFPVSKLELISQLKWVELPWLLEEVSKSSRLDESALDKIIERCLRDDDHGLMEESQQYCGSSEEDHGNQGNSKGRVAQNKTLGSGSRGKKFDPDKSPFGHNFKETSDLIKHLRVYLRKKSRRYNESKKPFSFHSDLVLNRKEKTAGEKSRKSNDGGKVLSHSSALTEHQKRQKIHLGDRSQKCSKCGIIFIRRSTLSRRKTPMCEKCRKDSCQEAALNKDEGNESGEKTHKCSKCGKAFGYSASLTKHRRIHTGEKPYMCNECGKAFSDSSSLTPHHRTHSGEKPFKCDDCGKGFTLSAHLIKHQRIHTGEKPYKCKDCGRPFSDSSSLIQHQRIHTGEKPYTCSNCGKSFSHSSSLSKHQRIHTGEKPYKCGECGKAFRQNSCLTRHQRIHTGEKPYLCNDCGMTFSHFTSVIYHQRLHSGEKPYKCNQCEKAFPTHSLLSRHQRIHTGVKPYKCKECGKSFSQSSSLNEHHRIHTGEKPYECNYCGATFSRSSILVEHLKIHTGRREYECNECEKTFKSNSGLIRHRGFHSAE
# This is one part of the list. For some of these results: The source does not settle which construct or isoform was used.
# Experiments:
# Assay in all cases: protein microarray (ProtoArray v5.0), streptavidin-Alexa Fluor 647
# Settings in all cases: 3'-biotin; 20 mM Tris (pH 7.5), 5 mM MgCl2, 100 mM KCl, 0.1% Tween-20, A/T-rich and random oligonucleotide blockers; temperature not stated; high values mean tight binding
# [1] = test system: ZNF174 (human)
# [2] = test system: ZNF226 (human)
# [3] = test system: ZNF3 (human)
# [4] = target: ZNF333 (UniProt Q96JL9)
# [5] = test system: ZNF343 (human)
# [6] = test system: ZNF434 (human)
# [7] = test system: ZNF44 (human)
# [8] = target: ZNF483 (UniProt Q8TF39)
# [9] = test system: ZNF551 (human)
# [10] = test system: ZNF616 (human)
sequence,measurement,setting,value
GGGAGGCTGAGGCAGG [G4-1 biotinylated (PQS2)],binding signal,[1],-0.316 z-score
same,binding signal,[2],-0.301 z-score
same,binding signal,[3],-0.359 z-score
same,binding signal,[4],-0.345 z-score
same,binding signal,[5],-0.31 z-score
same,binding signal,[6],-0.311 z-score
same,binding signal,[7],-0.308 z-score
same,binding signal,[8],-0.362 z-score
same,binding signal,[9],-0.288 z-score
same,binding signal,[10],-0.338 z-score

# Shown with bars between the fields: entries from further up
sequence | measurement | setting | value
GGGAGGCTGAGGCAGG [G4-1 biotinylated (PQS2)] | binding signal | [1] | -0.316 z-score
same | binding signal | [2] | -0.301 z-score
